Reference: patent publication US20250345370A1, “MICROBIAL LIBERATION OF N-METHYLSEROTONIN FROM ORANGE FIBER” (Washington University, priority 2022, published 2025)
This continues a long series; more values of the same kind are listed elsewhere.

Test system: colon gene expression
Experiment: RNA-Seq of colonic tissue of germ-free mice treated with 50 mg/kg/d N-methylserotonin
Format: in vivo, germ-free C57BL/6J mice
Conditions: colon

Structure (SMILES): CNCCc1c[nH]c2ccc(O)cc12 [N-methylserotonin]
- log2 fold-change (gene Mrpl42): −0.30
- log2 fold-change (gene Ms4a5): 3.19
- log2 fold-change (gene Ms4a8a): −0.51
- log2 fold-change (gene Ms4a12): −0.62
- log2 fold-change (gene Mt2): 0.75
- log2 fold-change (gene Mtcl1): 0.66
- log2 fold-change (gene Muc13): −0.47
- log2 fold-change (gene Mvb12b): 0.38
- log2 fold-change (gene Myo18b): 1.18
- log2 fold-change (gene Myocd): 0.40
- log2 fold-change (gene Myom1): 0.49
- log2 fold-change (gene Naip1): −0.44
- log2 fold-change (gene Nat8l): 0.72
- log2 fold-change (gene Nbea): 0.35
- log2 fold-change (gene Ncapg): −0.60
- log2 fold-change (gene Ncdn): 0.51
- log2 fold-change (gene Ndc1): −0.42
- log2 fold-change (gene Ndrg1): 0.33
- log2 fold-change (gene Ndrg2): −0.33
- log2 fold-change (gene Ndufa10): −0.26
- log2 fold-change (gene Ndufv2): −0.30
- log2 fold-change (gene Neat1): 0.33
- log2 fold-change (gene Nectin3): −0.25
- log2 fold-change (gene Nedd9): −0.33
- log2 fold-change (gene Neu3): −1.04
- log2 fold-change (gene Nfix): 0.64
- log2 fold-change (gene Nkd1): 0.80
- log2 fold-change (gene Nlrp1b): −0.32
- log2 fold-change (gene Nmnat2): 0.68
- log2 fold-change (gene Nox1): −0.91
- log2 fold-change (gene Npnt): 0.51
- log2 fold-change (gene Nr1d2): 0.42
- log2 fold-change (gene Nt5c3): −0.62
- log2 fold-change (gene Nt5e): −0.52
- log2 fold-change (gene Ntn1): 0.37
- log2 fold-change (gene Nupl1): −0.30
- log2 fold-change (gene Nupr1): 0.41
- log2 fold-change (gene Nusap1): −0.49
- log2 fold-change (gene Nxpe3): 1.84
- log2 fold-change (gene Nxpe4): −0.70
- log2 fold-change (gene Nynrin): 0.50
- log2 fold-change (gene Oas1a): −0.42
- log2 fold-change (gene Oas1g): −0.48
- log2 fold-change (gene Oasl2): −0.66
- log2 fold-change (gene Oat): −0.31
- log2 fold-change (gene Olfml3): 0.45
- log2 fold-change (gene Opcml): 0.79
- log2 fold-change (gene Orm3): 0.01
- log2 fold-change (gene Osbp2): 1.55
- log2 fold-change (gene P4ha2): 0.45
- log2 fold-change (gene Pacs1): 0.44
- log2 fold-change (gene Pak3): 0.88
- log2 fold-change (gene Pam): −0.50
- log2 fold-change (gene Pappa): 0.60
- log2 fold-change (gene Pate6): 0.01
- log2 fold-change (gene Pbsn): 10.71
- log2 fold-change (gene Pde7a): −0.63
- log2 fold-change (gene Pdk4): −0.81
- log2 fold-change (gene Pdxdc1): −0.25
- log2 fold-change (gene Peli3): 0.74
- log2 fold-change (gene Per3): 1.17
- log2 fold-change (gene Pfkp): −0.28
- log2 fold-change (gene Pglyrp1): −0.45
- log2 fold-change (gene Phldb1): 0.34
- log2 fold-change (gene Pigf): −0.48
- log2 fold-change (gene Pign): −0.29
- log2 fold-change (gene Pigr): −0.44
- log2 fold-change (gene Pitpnm2): 0.48
- log2 fold-change (gene Pla2g4f): −0.87
- log2 fold-change (gene Pla2g10): −0.47
- log2 fold-change (gene Plbd1): −0.62
- log2 fold-change (gene Pld3): 0.35
- log2 fold-change (gene Plekha8): −0.32
- log2 fold-change (gene Plekhb2): −0.31
- log2 fold-change (gene Plekhg5): 0.49
- log2 fold-change (gene Plpp3): 0.31
- log2 fold-change (gene Plscr3): 0.55
- log2 fold-change (gene Pnck): 0.85
- log2 fold-change (gene Pnkd): 0.53
- log2 fold-change (gene Pnliprp1): 3.29
- log2 fold-change (gene Pnp): −0.41
- log2 fold-change (gene Pnpt1): −0.39
- log2 fold-change (gene Pof1b): −0.43
- log2 fold-change (gene Pola1): −0.55
- log2 fold-change (gene Ppih): −0.46
- log2 fold-change (gene Ppp1r3b): −0.53
- log2 fold-change (gene Ppp1r12b): 0.27
- log2 fold-change (gene Ppp4r1l-ps): 0.68
- log2 fold-change (gene Ppy): −1.36
- log2 fold-change (gene Prdx1): −0.26
- log2 fold-change (gene Prkn): 1.09
- log2 fold-change (gene Prodh): 0.57
- log2 fold-change (gene Prom2): 0.01
- log2 fold-change (gene Prr12): 0.55
- log2 fold-change (gene Prrx1): 1.42
- log2 fold-change (gene Ptprs): 0.43
- log2 fold-change (gene Pycr1): 0.88
- log2 fold-change (gene Pyy): −0.64
- log2 fold-change (gene Qpctl): 0.46
- log2 fold-change (gene R3hcc1): 0.43
- log2 fold-change (gene Rab11fip3): 0.48
- log2 fold-change (gene Rbfox3): 2.79
- log2 fold-change (gene Rdh16): −0.68
- log2 fold-change (gene Ren1): 8.82
- log2 fold-change (gene Rep15): −0.41
- log2 fold-change (gene Retreg1): −0.40
- log2 fold-change (gene Rhbdf1): 0.47
- log2 fold-change (gene Rimklb): 2.24
- log2 fold-change (gene Rims4): −0.82
- log2 fold-change (gene Rnase1): 3.42
- log2 fold-change (gene Rnf125): −0.73
- log2 fold-change (gene Rorb): 1.88
- log2 fold-change (gene Rrm1): −0.42
- log2 fold-change (gene Rsad2): −0.75
- log2 fold-change (gene Rusc2): 0.43
- log2 fold-change (gene Samd5): 0.41
- log2 fold-change (gene Samd9l): −0.34
- log2 fold-change (gene Sdc3): 0.40
- log2 fold-change (gene Sdk2): 0.72
- log2 fold-change (gene Selenop): −0.57
- log2 fold-change (gene Serpina9): −1.18
- log2 fold-change (gene Setd1b): 0.49
- log2 fold-change (gene Sh3bp4): 0.55
- log2 fold-change (gene Sh3gl2): 0.49
- log2 fold-change (gene Shisa4): 2.78
- log2 fold-change (gene Skil): −0.39
- log2 fold-change (gene Slc1a1): −0.59
- log2 fold-change (gene Slc2a5): 0.65
- log2 fold-change (gene Slc2a13): −0.44
- log2 fold-change (gene Slc5a3): −0.45
- log2 fold-change (gene Slc5a8): −0.56
- log2 fold-change (gene Slc6a6): 0.32
- log2 fold-change (gene Slc6a14): −0.32
- log2 fold-change (gene Slc7a1): 0.52
- log2 fold-change (gene Slc7a9): −1.03
- log2 fold-change (gene Slc9a1): 0.45
- log2 fold-change (gene Slc15a1): −0.63
- log2 fold-change (gene Slc16a2): 0.73
- log2 fold-change (gene Slc16a7): 1.26
- log2 fold-change (gene Slc16a12): −0.94
- log2 fold-change (gene Slc17a4): −0.39
- log2 fold-change (gene Slc25a5): −0.25
- log2 fold-change (gene Slc25a20): −0.31
- log2 fold-change (gene Slc25a22): 0.52
- log2 fold-change (gene Slc25a23): 0.54
- log2 fold-change (gene Slc25a29): 1.25
- log2 fold-change (gene Slc25a46): −0.29
- log2 fold-change (gene Slc30a2): 3.33
- log2 fold-change (gene Slc30a4): −0.26
- log2 fold-change (gene Slc34a2): −1.07
- log2 fold-change (gene Slc35a3): −0.35
- log2 fold-change (gene Slc40a1): −0.69
- log2 fold-change (gene Slc41a1): 0.38
- log2 fold-change (gene Slc44a1): −0.34
- log2 fold-change (gene Slc46a1): −0.65
- log2 fold-change (gene Slc52a2): 0.46
- log2 fold-change (gene Slco4c1): 5.14
- log2 fold-change (gene Slit3): 0.45
- log2 fold-change (gene Smc2): −0.44
- log2 fold-change (gene Smchd1): −0.27
- log2 fold-change (gene Smim1): 1.51
- log2 fold-change (gene Smpdl3a): −0.42
